The source of these data is publication PMC2732903.

The chains behind the UniProt entries cited, without tags or fusion partners. Where a name states a change or a piece, a line headed by the entry shows the natural chain unless it says otherwise.
UniProt Q9NUX5: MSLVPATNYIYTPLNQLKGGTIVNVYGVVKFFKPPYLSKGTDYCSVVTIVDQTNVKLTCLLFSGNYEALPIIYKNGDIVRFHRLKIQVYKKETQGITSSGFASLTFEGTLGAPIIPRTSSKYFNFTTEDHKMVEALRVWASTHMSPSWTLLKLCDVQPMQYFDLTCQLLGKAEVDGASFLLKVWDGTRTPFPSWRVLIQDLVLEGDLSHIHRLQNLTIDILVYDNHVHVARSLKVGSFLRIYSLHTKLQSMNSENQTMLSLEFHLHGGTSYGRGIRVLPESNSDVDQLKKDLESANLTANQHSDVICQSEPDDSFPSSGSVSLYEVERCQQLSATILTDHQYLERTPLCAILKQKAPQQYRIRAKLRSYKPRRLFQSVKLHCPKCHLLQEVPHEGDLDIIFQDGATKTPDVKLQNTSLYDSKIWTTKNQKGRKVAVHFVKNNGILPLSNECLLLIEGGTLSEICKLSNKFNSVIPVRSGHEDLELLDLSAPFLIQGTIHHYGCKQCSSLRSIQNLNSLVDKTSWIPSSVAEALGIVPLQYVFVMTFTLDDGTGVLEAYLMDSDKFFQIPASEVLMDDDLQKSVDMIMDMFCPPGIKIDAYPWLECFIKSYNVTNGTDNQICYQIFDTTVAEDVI
UniProt Q13472: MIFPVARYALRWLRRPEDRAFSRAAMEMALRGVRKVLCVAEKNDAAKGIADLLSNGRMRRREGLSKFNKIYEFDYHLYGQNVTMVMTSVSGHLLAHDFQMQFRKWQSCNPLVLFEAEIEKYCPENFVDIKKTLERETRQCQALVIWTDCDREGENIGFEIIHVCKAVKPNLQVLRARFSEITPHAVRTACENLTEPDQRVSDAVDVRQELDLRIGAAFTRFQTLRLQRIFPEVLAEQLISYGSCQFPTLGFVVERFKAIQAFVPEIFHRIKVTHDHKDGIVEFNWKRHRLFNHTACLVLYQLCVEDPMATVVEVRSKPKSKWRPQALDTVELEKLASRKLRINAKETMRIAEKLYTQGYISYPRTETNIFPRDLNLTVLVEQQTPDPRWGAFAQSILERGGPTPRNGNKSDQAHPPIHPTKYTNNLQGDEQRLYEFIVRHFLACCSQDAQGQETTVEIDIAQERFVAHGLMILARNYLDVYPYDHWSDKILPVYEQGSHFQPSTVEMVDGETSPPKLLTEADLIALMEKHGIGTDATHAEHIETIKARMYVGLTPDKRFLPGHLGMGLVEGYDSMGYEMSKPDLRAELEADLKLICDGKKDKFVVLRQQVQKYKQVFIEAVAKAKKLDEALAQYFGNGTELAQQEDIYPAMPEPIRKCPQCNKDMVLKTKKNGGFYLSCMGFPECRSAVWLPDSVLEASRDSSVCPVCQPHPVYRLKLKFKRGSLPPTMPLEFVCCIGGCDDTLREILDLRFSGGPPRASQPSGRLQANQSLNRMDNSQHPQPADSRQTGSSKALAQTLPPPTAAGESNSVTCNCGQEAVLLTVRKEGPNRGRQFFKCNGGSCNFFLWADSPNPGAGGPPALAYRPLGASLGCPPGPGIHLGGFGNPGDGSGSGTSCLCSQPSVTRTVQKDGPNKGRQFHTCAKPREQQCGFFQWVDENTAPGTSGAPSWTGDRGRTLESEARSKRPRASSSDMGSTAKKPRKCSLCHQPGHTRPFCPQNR

Data set [1] addresses hPOT1 (human) (UniProt Q9NUX5). Nature of the data set: EMSA. To be noted: with telomestatin (telomestatin IC50 100 nM); 50 mM HEPES pH 7.9, 100 mM NaCl, 0.1 mM EDTA, 4% sucrose, 2% glycerol, 0.1 mg/mL BSA, 0.02% bromophenol blue, 20 nM probe, room temperature 30 min; 1% agarose, 0.5X TBE; recombinant protein; label: 32P; folded or branched DNA.
In data set [2] the target is Topoisomerase IIIα (Topo III) (human) (UniProt Q13472). Nature of the data set: EMSA. The conditions noted are these: 50 mM HEPES pH 7.9, 100 mM NaCl, 0.1 mM EDTA, 4% sucrose, 2% glycerol, 0.1 mg/mL BSA, 0.02% bromophenol blue, 20 nM probe, room temperature 30 min, 1% agarose, 0.5X TBE, recombinant protein, folded or branched DNA.
The target is the same in data set [3]. Nature of the data set: competition with a labelled probe. To be noted: unlabelled competitor vs 32P-S310, 21G or 24C, 50 mM HEPES pH 7.9, 100 mM NaCl, 0.1 mM EDTA, 4% sucrose, 2% glycerol, 0.1 mg/mL BSA, 0.02% bromophenol blue, 20 nM probe, room temperature 30 min, 1% agarose, 0.5X TBE, recombinant protein, label: 32P when used as probe.

Construct, isoform or probe ends are uncertain for at least one entry. For some assays here: No signal at the amounts used counts as a negative. A weaker result is weaker than the reference pair of the same experiment. For some assays here: At least one verdict rests on a figure or table, not on a statement of the authors.

Regarding TTAGGGTTAGGGTTAGGGTTAGGGTT [Wt26], the binding result in data set [1] is listed as “binds more weakly”; in data set [2] (0.1 uM telomestatin: no complex (telomestatin IC50 60 nM), label: 32P), “no binding”.

For the sequence GGGTTAGGGTTAGGGTTAGGG [21G], the binding result in data set [2] (with telomestatin (telomestatin IC50 300 nM), label: 32P when used as probe, unlabelled as competitor) is “binds more weakly”; in data set [3] (IC50 higher than non-G4 oligos (4.3-10.1-fold range), folded or branched DNA) it was “binds more weakly”.

With GGCTTACGGTTAGCGTTAGGG [21G mu3 (21Gmu)], the binding result in data set [3] (IC50 lower than G4 oligos (4.3-10.1-fold range), single-stranded DNA) was “binds”.
